Data source: PubChem BioAssay AID652272 (Drosophila RNAi Screening Center, 2013)

Screen: 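Finding fly genes that regulate Hedgehog signal transduction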 (primary screen)
System: Drosophila clone 8 (Cl8) cells
Reagents: long dsRNA against Drosophila genes
Measurement: 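Firefly light from a Hedgehog-responsive ptc promoter reporter and Renilla reference light, both read on a plate reader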
Scale: firefly Hh reporter signal: higher = more ptc reporter light; Renilla reference signal: higher = more Renilla control light
Active means: 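Hit when the z-score averaged over two replicates is under -2 or over +3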
Calls: active = hit: reporter lowered or raised; inactive = not a hit
The deposit covers about 21,000 reagents; shown is a random part of those that have a named target and a result. Over the whole deposit, 503 (2.4%) were called active. 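Raw plate light values, not normalised; calls rest on replicate z-scores that were not deposited; hits include reporter decreases as well as increases.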 Entries without a mark were called inactive. Reagents against one gene are numbered here. A plus sign joins genes that one reagent is predicted to hit. Reagent sequences are not shown. Not stated in the record: the amount of reagent, the time to read-out.

| gene | reagent | firefly Hh reporter signal, replicate 1 | firefly Hh reporter signal, replicate 2 | firefly Hh reporter signal, replicate 3 | Renilla reference signal, replicate 1 | Renilla reference signal, replicate 2 |
| --- | --- | --- | --- | --- | --- | --- |
| dy (dusky) | 1 | 1.05e5 | 4.13e5 | – | 2214 | 14740 |
| CG13613 | 1 | 4.69e5 | 99265 | – | 22724 | 3234 |
| CG42594 | 1 | 22011 | 22231 | – | 939 | 1257 |
| CG42594 | 2 | 77980 | 1.70e5 | – | 2658 | 6850 |
| CG18788 | 1 | 88380 | 52235 | – | 2312 | 4416 |
| CG11737 | 1 | 51261 | 1.03e5 | – | 2086 | 2873 |
| CR14798 (pseudo) | 1 | 80455 | 2.60e5 | – | 1562 | 11096 |
| Cbp80 (cap binding protein 80) | 1 | 1.00e5 | 76902 | – | 2568 | 2756 |
| CG5554 | 1 | 69808 | 58697 | – | 1640 | 4955 |
| CG6180 | 1 | 86533 | 73879 | – | 3508 | 2875 |
| CG3270 | 1 | 1.26e5 | 59203 | – | 4584 | 2347 |
| CG17191 | 1 | 1.25e5 | 85492 | – | 4560 | 3069 |
| Arl6IP1 (ADP-ribosylation factor-like 6 interacting protein 1) | 1 | 64422 | 84449 | – | 1650 | 2196 |
| CG14795 | 1 | 1.05e5 | 1.55e5 | – | 3786 | 6569 |
| CG12009 | 1 | 94059 | 60104 | – | 4107 | 2473 |
| CG15580 | 1 | 76448 | 1.21e5 | – | 2994 | 3448 |
| CG10669 | 1 | 4.63e5 | 64129 | – | 31160 | 1595 |
| CG2993 | 1 | 73418 | 95072 | – | 2832 | 3056 |
| CG2993 | 2 | 1.29e5 | 92000 | – | 4730 | 3922 |
| CG3226 | 1 | 1.02e5 | 97076 | – | 1649 | 1757 |
| CG10839 | 1 | 1.30e5 | 56833 | – | 3562 | 5446 |
| CG15650 | 1 | 85754 | 38441 | – | 2164 | 3468 |
| aru (arouser) | 1 | 1.71e5 | 1.08e5 | – | 3977 | 2523 |
| CG11566 (retired record) + stg1 | 1 | 48018 | 61285 | – | 2081 | 3649 |
| CG11566 (retired record) + stg1 | 2 | 91660 | 1.58e5 | – | 3673 | 7712 |
| CG11566 (retired record) + stg1 | 3 | 1.22e5 | 2.08e5 | – | 4460 | 8677 |
| CG11566 (retired record) + stg1 | 4 | 1.15e5 | 2.23e5 | – | 4224 | 8901 |
| CG34354 | 1 | 44246 | 2.15e5 | – | 10489 | 5866 |
| CG34354 | 2 | 80140 | 24320 | – | 3010 | 1051 |
| CG34354 | 3 | 35508 (active) | 21892 | – | 1814 | 1312 |
| CG34354 | 4 | 84434 | 1.00e5 | – | 2976 | 3009 |

Next part; the last 3 above are carried over.
| gene | reagent | firefly Hh reporter signal, replicate 1 | firefly Hh reporter signal, replicate 2 | firefly Hh reporter signal, replicate 3 | Renilla reference signal, replicate 1 | Renilla reference signal, replicate 2 |
| --- | --- | --- | --- | --- | --- | --- |
| CG34354 | 2 | 80140 | 24320 | – | 3010 | 1051 |
| CG34354 | 3 | 35508 (active) | 21892 | – | 1814 | 1312 |
| CG34354 | 4 | 84434 | 1.00e5 | – | 2976 | 3009 |
| Coq4 + frc | 1 | 99586 | – | – | 2101 | 3373 |
| Coq4 + frc | 2 | 1.11e5 | – | – | 5683 | 3543 |
| CG30376 | 1 | 79733 | 1.85e5 | – | 2219 | 8304 |
| RhoGAP71E (Rho GTPase activating protein at 71E) | 1 | 89522 | 56688 | – | 3686 | 1994 |
| RhoGAP71E (Rho GTPase activating protein at 71E) | 2 | 63264 (active) | – | – | 3292 | 2759 |
| RhoGAP71E (Rho GTPase activating protein at 71E) | 3 | 1.29e5 | – | – | 8553 | 3930 |
| Gat (GABA transporter) | 1 | 53792 | 1.62e5 | – | 1505 | 6136 |
| fzr2 (fizzy-related 2) | 1 | 1.01e5 | 92470 | – | 4071 | 3809 |
| CG12773 | 1 | 78774 | 82140 | – | 1033 | 2493 |
| Pex11ab (Peroxin 11a/b) | 1 | 70938 | 55575 | – | 2161 | 4032 |
| CG43896 | 1 | 59786 | 52276 | 42276 | 4736 | 3106 |
| CG43896 | 2 | 72280 | 44855 | 43255 | 4257 | 3202 |
| Cys (Cystatin-like) | 1 | 1.04e5 | 1.10e5 | – | 3515 | 3236 |
| MetRS-m (Methionyl-tRNA synthetase, mitochondrial) | 1 | 86951 | 67975 | – | 3576 | 2729 |
| MetRS-m (Methionyl-tRNA synthetase, mitochondrial) | 2 | 50967 | 91876 | – | 792 | 2013 |
| CG13038 | 1 | 1.64e5 | – | – | 2056 | 5104 |
| RecQ5 (RecQ5 helicase) | 1 | 76320 | 96228 | – | 3257 | 3569 |
| Duox (Dual oxidase) | 1 | 1.43e5 | 1.11e5 | – | 3141 | 2987 |
| tfc (triforce) | 1 | 1.09e5 | 2.48e5 | – | 3380 | 9361 |
| tfc (triforce) | 2 | 1.01e5 | 1.94e5 | – | 3200 | 8002 |
| tfc (triforce) | 3 | 1.08e5 | 1.01e5 | – | 5664 | 4343 |
| CG5727 | 1 | 1.18e5 | 70922 | – | 5189 | 3149 |
| CG13043 | 1 | 1.59e5 | – | – | 2685 | 4200 |
| CG14877 | 1 | 84288 | 98592 | – | 2653 | 2835 |
| sens (senseless) | 1 | 31136 | – | – | 1504 | – |
| psq (pipsqueak) | 1 | 26784 | 11367 | – | 1467 | 691 |
| Ctf4 (Chromosome transmission fidelity 4) | 1 | 1.07e5 | 64507 | – | 4800 | 2774 |
| pdm2 (POU domain protein 2) | 1 | 1.32e5 | 55149 | – | 3317 | 4725 |
| pdm2 (POU domain protein 2) | 2 | 1.05e5 | 28219 | – | 2998 | 2752 |
| pdm2 (POU domain protein 2) | 3 | 1.33e5 | 44195 | – | 2842 | 4054 |
| sunz (sungrazer) | 1 | 78645 | 1.14e5 | – | 2674 | 3193 |
| Adgf-C (Adenosine deaminase-related growth factor C) | 1 | 66187 | 93909 | – | 1497 | 2218 |
| CG5023 | 1 | 5.42e5 | 86022 | – | 29328 | 2373 |
| Sumo (Small ubiquitin like modifier) | 1 | 35450 | 38950 | – | 2028 | 1578 |
| Tsp42Er (Tetraspanin 42Er) | 1 | 77474 | 43872 | – | 2176 | 4374 |
| Ttd14 (TRPL translocation defect 14) | 1 | 1.53e5 | 1.16e5 | – | 5570 | 4151 |
| Ttd14 (TRPL translocation defect 14) | 2 | 1.21e5 | 81562 | – | 2949 | 4806 |
| Loxl2 (Lysyl oxidase-like 2) | 1 | 66788 | 66758 | – | 2675 | 2832 |
| PIG-O (Phosphatidylinositol glycan anchor biosynthesis class O) | 1 | 1.47e5 | 1.19e5 | – | 6343 | 4961 |
| ECSIT | 1 | 84102 | 1.17e5 | – | 3505 | 3308 |
| CG6685 | 1 | 79675 | 42528 | 55616 | 3309 | 3088 |
| l(1)G0020 (lethal (1) G0020) | 1 | 1.13e5 | 2.43e5 | – | 2710 | 9430 |
